Measured values as given in patent publication US11629165B2, “Molecules for targeting ribosomes and ribosome-interacting proteins, and uses thereof” (Immagina Biotechnology S.r.l., priority 2018, dated 2023).
Some of these results come from one statement about several compounds together. At least one compound was matched to its structure with a doubt left.

Test system: MCF7 cells
Assay: Polysome profiling of probe-treated cells
Format: cell-based
Conditions: MCF7, 7 hours or 18 hours incubation
Experimental: To better understand the effect of 3Px on the global translation efficiency, we compared the polysome profiles from DMSO and probes-treated cells. By treating MCF7 cells with 50 μM 3PBis or 3PB for 10 min, we observed a 10% reduction of the polysome/80S ratio (calculated by comparing the area under the 80S peak and the combined area under the polysome peaks, FIG. 11a). This effect is independent from the UV-treatment. Incubation of 3PB and 3PBis for longer times (7 hours or 18 hours) results in a depression of the polysome/80S area ratio of >50%, meaning that treatments with 3PBis can depress translation, increasing the 80S pick and reducing heavy polyribosomes (FIG. 11b).
Cells were incubated for 5 minutes with cycloheximide 10 μg/mL at 37° C. to trap the ribosomes on the mRNAs. Cells were then washed with PBS complemented with cycloheximide (10 μg/mL) and scraped directly on the plate with 300 μL of lysis buffer (10 mM NaCl, 10 mM MgCl2, 10 mM Tris-HCl, pH 7.5, 1% Triton X-100, 1% sodium deoxycholate, […], 5 U/mL DNAse I, 200 U/mL RNase inhibitor, and 10 μg/mL cycloheximide, protease inhibitor). Nuclei and cellular debris were removed by three consecutive centrifugations (800 g, 5 min at 4° C.). […] The fraction corresponding to the 40S, 60S and 80S peaks and those corresponding to polysomes were collected monitoring the absorbance at 254 nm. […]

Structure (SMILES): C#CCOCCC(=O)NCCOCCOCCNC(=O)N[C@@H](Cc1ccc(OC)cc1)C(=O)N[C@H]1C(OC(=O)OCCC2(C)N=N2)C(n2cnc3c(N(C)C)ncnc32)O[C@@H]1COC(=O)OCCC1(C)N=N1 (stereo partly shown) [3PBis]
- depression of the polysome/80S area ratio: > 50%
